Assay results published in patent US20100129434A1, “COMPOSITIONS AND METHODS FOR THE TREATMENT OF MUCORMYCOSIS AND OTHER FUNGAL DISEASES” (priority 2006, published 2010).
For at least one compound, name, drawing or mass did not settle the structure.

How the values were obtained:
Rhizopus = settings: radiolabeled iron uptake from deferoxamine in serum; cited from earlier work
R. oryzae 99-880 = experiment: MIC and MFC of deferiprone and deferoxamine against R. oryzae; assay type: cell-based, Rhizopus oryzae
Method: Initially, the in vitro activity of deferiprone against R. oryzae was assessed in this study. Briefly, R. oryzae 99-880 was isolated from a brain abscess of a diabetic patient. The organism was grown on potato dextrose agar (PDA) for 3 days at 37° C. In some experiments, R oryzae was starved for iron by growth on PDA in the presence of 1 mM of ascorbic acid and ferrozine. The sporangiospores were collected in endotoxin free PBS containing 0.01% Tween 80, washed with PBS then counted with hemacytometer to prepare the final inocula. For susceptibility testing, the minimum inhibitory concentration (MIC) and minimum fungicidal concentration (MFC) were determined for Def and deferoxamine by the method of Espinel-Ingroff (J Clin Microbiol 39:954 (2001)).

CC(=O)N(O)CCCCCNC(=O)CCC(=O)N(O)CCCCCNC(=O)CCC(=O)N(O)CCCCCN [Deferoxamine]
iron accumulated by Rhizopus relative to Aspergillus fumigatus (Rhizopus): 8 fold | iron accumulated by Rhizopus relative to C. albicans (Rhizopus): 40 fold | inhibition of growth of R. oryzae (R. oryzae 99-880; 24 or 48 hr): did not inhibit the growth | growth in wells versus growth control wells (R. oryzae 99-880; by visual inspection): greater than in the growth control wells
